One may read the AC50 as the concentration at which the activity in the assay is half-maximal.

This passage reports AC50 results from PubChem BioAssay AID493014 (National Center for Advancing Translational Sciences (NCATS), 2011).

Each structure is given as a SMILES string. Values joined by “and” are separate entries in the source; they are usually repeats but may differ in a detail not shown here. Equal values may be shown once. The list shows a part of the results. The main result of the screen is listed elsewhere. These columns were measured beside it and carry no call. Compounds called inactive in the main read-out are mostly missing here. The note in brackets gives the kind of curve behind each potency; many fits are weak.

The nature of the test: qHTS Assay to Find Inhibitors of Chronic Active B-Cell Receptor Signaling. The conditions noted are these: ABC-DLBCL IkBa-CBG/CBR reporter, luminescence ratio (green luciferase fused to IkBa over red control in TMD8 lymphoma cells), 4 h. The gist of the method: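 TMD8 ABC-DLBCL cells carrying doxycycline-inducible green luciferase fused to IkappaBalpha plus unfused red luciferase were exposed to compounds (up to 46 uM) for 4 hrs at 37C. Activity came from the overlap-corrected green/red luminescence ratio.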
For orientation: In qHTS, concentration-response curves come from the screen itself.

[1] abbreviates: measured here: CBR red luminescence, cell number.
Setting [2] is: measured here: IkBa-CBG green luminescence.

For the compound `CCCCNCc1ccc(OCc2ccc(Cl)nc2)c(OC)c1`, the AC50 under setting [1] was 14.1 µM [rising, single point].

Regarding `c1ccc(-c2nc(-c3cccs3)[nH]c2-c2ccccc2)cc1`, under setting [1], the AC50 was 1.58 µM [falling, full curve, poor fit].

Take `Cc1ccc2nc(Cl)c3cc(C(=O)NCCCN4CCCC4)sc3c2c1`: under setting [1], the AC50 is 15.8 µM [falling, partial curve, poor fit].

For `CCOc1ccc(NC(=O)CN2CCN(CC(=O)Nc3ccc(F)cc3)CC2)cc1`, the AC50 under setting [1] was 6.31 µM [falling, single point].

Take `COC(=O)c1cc(-c2ccc(OC)c(OC)c2)n[nH]1`: the AC50 under setting [1] is 1.64 µM [rising, partial curve, poor fit].

Take `C=CCC[C@@H](Cc1ccc(F)cc1)C(=O)OCCNC(=O)[C@@H](CC=C)CC(=O)N[C@H](CO)Cc1ccccc1`: the AC50 under setting [1] is 20.6 µM [falling, single point].

For the compound `O=C(c1ccc(COCC(F)(F)F)o1)N1CCCCCC1`, the AC50 under setting [1] is 14.1 µM [rising, single point].

On to `CS(=O)(=O)c1ccc(C(=O)OCC(=O)NNC(=O)COc2ccc(Cl)cc2)cc1`, for which, under setting [1], the AC50 was 2.31 µM [rising, full curve, poor fit].

On to `Cc1ccc(OCCCCn2cnc3ccccc32)cc1`, for which the AC50 under setting [1] is 35.5 µM [falling, single point].

As for `CN(C)c1ccc(NC(=O)c2ccc3nc[nH]c3c2)cc1`, the concentration at half-maximal activity (AC50) under setting [1] is 15.8 µM [falling, single point].

As to `C=CCOc1ccccc1CNc1ccc2c(c1)OCCO2`, under setting [1], the AC50 is 35.5 µM [falling, single point].

Turning to `CC(=O)c1cc(-c2ccccc2)n(CC(=O)N2CCC(C)CC2)c1C`, under setting [1], the AC50 is 14.6 µM [rising, partial curve, poor fit].

`Cc1ccccc1NS(=O)(=O)c1cc(C(=O)NCCC2=CCCCC2)ccc1Cl`: the AC50 under setting [1] was 7.08 µM [falling, partial curve, poor fit].

With `Clc1cccc(CN2CCc3c([nH]c4ccccc34)C2)c1`, the AC50 under setting [1] was 8.91 µM [falling, partial curve, poor fit].

Take `Cc1ccc(C(=O)NC(=S)Nc2ccccc2C(F)(F)F)c(C)c1`: the half-maximal activity concentration (AC50) under setting [1] was 0.231 µM [rising, full curve, poor fit].

On to `CN(C)c1nc(OCCOC(=O)Nc2ccc(Cl)cc2Cl)nc(N(C)C)n1`, for which the AC50 under setting [1] was 0.00411 µM [rising, full curve, poor fit].

For `Cc1cc(-c2nnc(SCC(=O)Nc3nc(-c4ccc(Cl)cc4)cs3)o2)no1`, the AC50 under setting [1] is 8.91 µM [rising, partial curve, poor fit].

Consider `Nc1ccc(C(=O)N/N=C/c2c[nH]c3ccccc23)cc1`, for which the AC50 under setting [1] was 11.2 µM [falling, partial curve, poor fit].

Take `COc1ccccc1NC(=S)NNC(=O)c1nn(C)cc1Cl`: the AC50 under setting [1] was 12.6 µM [falling, partial curve].

On to `COc1ccc(C(Nc2ccccn2)c2c(NC(=O)c3ccco3)sc(C)c2C)cc1OC` (stereo not given), for which the AC50 under setting [1] is 32.6 µM [falling, single point].

Take `O=C(CSc1nnc(-c2ccccc2)c2ccccc12)NCC1CCCO1` (stereo not given): the AC50 under setting [1] is 35.5 µM [falling, single point].

In the case of `Cc1c(-c2ccccc2)[nH]n2c(=O)c3c(nc12)CCCC3`, the AC50 under setting [1] is 25.9 µM [rising, partial curve].

As to `COCCNC(=O)/C(C#N)=C\c1ccc(CNC(=O)C(=O)Nc2ccc(C)c(C)c2)o1`, the concentration at half-maximal activity (AC50) under setting [1] was 7.08 µM [rising, partial curve, poor fit].

For the compound `COc1ccc(C2SCCN2C(=O)c2ccc([N+](=O)[O-])cc2)cc1` (stereo not given), the AC50 under setting [1] is 6.31 µM [rising, single point].

Consider `Cc1cc(C)c(S(=O)(=O)N2CCCCCC2)cc1Br`, for which the AC50 under setting [1] was 5.01 µM [rising, partial curve, poor fit].

Consider `CC(=O)N1CCC(=NNc2nc3ccccc3s2)CC1`, for which the AC50 under setting [1] was 17.8 µM [falling, single point].

Consider `CCOC(=O)c1c(CC(C)C)csc1/N=C/C1=C(O)CCCC1=O`, for which the AC50 is 14.1 µM [falling, single point] under setting [1] and 15.8 µM [rising, single point] under setting [2].

With `COc1ccc(C(Nc2ccccn2)c2c(NC(=O)c3ccco3)sc(C)c2C)cc1` (stereo not given), under setting [1], the AC50 is 0.103 µM [rising, full curve, poor fit].

`Cc1ccccc1CNC(=O)Nc1ccc(Cl)cc1`: under setting [1], the AC50 was 25.1 µM [falling, partial curve, poor fit].

`Cn1c(-c2ccc3nc(N)sc3c2)nc2cc(N)ccc21`: the concentration at half-maximal activity (AC50) under setting [1] is 10.3 µM [falling, partial curve, poor fit].

In the case of `CCCN(CCC)C(=O)c1oc2ccccc2c1NC(=O)Cc1cccc(OC)c1`, under setting [1], the AC50 was 3.98 µM [rising, full curve, poor fit].

On to `C=CCNC(=S)NNC(=O)c1ccc2c(c1)OCO2`, for which the AC50 under setting [1] is 20 µM [falling, single point].

Consider `COc1cccc(-c2nc(N3CCN(C)CC3)c3ccccc3n2)c1O`, for which the AC50 under setting [2] is 14.1 µM [rising, partial curve, poor fit].

With `COc1ccc(OC(=O)CCc2c[nH]c3ccccc23)cc1`, under setting [1], the concentration at half-maximal activity (AC50) was 0.224 µM [rising, full curve, poor fit].

Regarding `Cc1ccc2nc(-c3ccc(NC(=O)C4CCCO4)cc3)[nH]c2c1` (stereo not given), the AC50 under setting [1] is 2.59 µM [falling, full curve].

Consider `CCOc1cc(C2C(C#N)=C(N)Oc3n[nH]c(CC)c32)ccc1OCCN1CCOCC1` (stereo not given), for which the AC50 under setting [1] was 18.4 µM [falling, partial curve, poor fit].

With `Cc1cccc(C)c1NC(=O)N1C(C(=O)O)CSC1C(=O)O` (stereo not given), under setting [1], the AC50 was 29.1 µM [falling, single point].

Regarding `O=C(O)c1ccc(N=NN2CCOCC2)cc1`, the AC50 under setting [1] was 9.2 µM [falling, partial curve].

On to `O=C(COC(=O)c1ccc(NS(=O)(=O)c2cccs2)cc1O)Nc1ccc(F)cc1`, for which the AC50 under setting [1] was 22.4 µM [falling, single point].

With `COc1cccc(-n2c(SCC(=O)NCCC3=CCCCC3)nc3n[nH]c(C)c3c2=N)c1`, the AC50 under setting [1] is 14.1 µM [falling, partial curve, poor fit].

As to `O=C(C[n+]1ccc(C(=O)NCc2ccccc2)cc1)c1ccc2c(c1)OCCO2`, the concentration at half-maximal activity (AC50) under setting [1] is 17.8 µM [falling, partial curve, poor fit].

For `Nc1[nH]n(-c2ccccc2)c(=O)c1N=Nc1ccccc1[N+](=O)[O-]`, the AC50 under setting [1] is 0.231 µM [falling, full curve].

On to `Cn1nccc1C(=O)Nc1ccccc1C(=O)O`, for which the AC50 under setting [1] was 10 µM [falling, partial curve, poor fit].

Take `Cc1ccnc2nc(C(=O)N3CCN(S(=O)(=O)c4ccccc4)CC3)nn12`: the AC50 under setting [1] was 35.5 µM [rising, single point].

For the compound `O=C(NNC1=Nc2ccccc2SC1)c1ccccc1F`, the AC50 under setting [1] was 14.1 µM [falling, partial curve].

On to `CCN(CC)Cc1cc(Nc2ccnc3cc(Cl)ccc23)ccc1O`, for which, under setting [1], the AC50 was 8.91 µM [falling, partial curve, poor fit] and 20.6 µM [falling, partial curve, poor fit].

Take `O=c1c2ccccc2n2cnnc2n1-c1ccccc1`: the AC50 under setting [1] was 6.31 µM [rising, partial curve, poor fit].

`Cn1c(N)c(C(=O)COC(=O)C2(c3cccc(F)c3)CCCC2)c(=O)n(C)c1=O`: the AC50 under setting [1] was 0.562 µM [falling, full curve, poor fit].

With `Cc1ccc(NC(=O)CSc2nnc(COc3ccccc3C)o2)cc1`, under setting [1], the AC50 was 3.55 µM [falling, partial curve, poor fit].

`O=S(=O)(NC1CCCCC1)c1ccc(Cl)s1`: the AC50 under setting [1] was 0.00651 µM [falling, full curve, poor fit].

Turning to `CC(c1ccccc1)N1C(=O)c2ccccc2C1O` (stereo not given), under setting [1], the AC50 was 10.3 µM [rising, partial curve, poor fit].

Consider `CCn1c(C)nc2cc(C(=O)N/N=C(\C)c3ccc(N4CCOCC4)cc3)ccc21`, for which the AC50 under setting [1] was 35.5 µM [rising, single point].

Turning to `Brc1ccc(-c2ccc(CNCc3ccccn3)o2)cc1`, the AC50 under setting [1] is 17.8 µM [rising, partial curve, poor fit].

Take `COCC(=O)O[C@]1(CCN(C)CCCc2nc3ccccc3[nH]2)CCc2cc(F)ccc2[C@@H]1C(C)C`: under setting [1], the AC50 was 11.2 µM [falling, partial curve].

As to `CC(=O)NC(N(C#N)c1nc(Cl)nc(N(C)C)n1)C(Cl)(Cl)Cl` (stereo not given), the half-maximal activity concentration (AC50) under setting [1] was 12.6 µM [rising, partial curve].

On to `Oc1ccc(CNc2ccccc2O)cc1`, for which, under setting [1], the AC50 is 1.16 µM [falling, full curve, poor fit].

With `O=S(=O)(c1ccc(-c2cc(C(F)(F)F)on2)s1)N1CCCC1`, the AC50 under setting [1] was 3.16 µM [falling, single point].

With `CC(C)CNc1ncnc2c1cnn2Cc1ccc(Cl)cc1`, under setting [1], the AC50 was 2.82 µM [rising, partial curve].

Consider `CCc1nnc(NC(=O)CSc2nnc(C(C)NC(=O)c3ccccc3F)n2C)s1` (stereo not given), for which the concentration at half-maximal activity (AC50) under setting [1] was 3.16 µM [rising, full curve].

Turning to `COc1ccc(CCn2c(=N)c(C(=O)NCC3CCCO3)cc3c(=O)n4ccccc4nc32)cc1OC` (stereo not given), the AC50 under setting [1] is 0.794 µM [falling, partial curve, poor fit].

For `Cc1cc(-c2ccccc2)n2nc(C)c(-c3ccccc3)c2n1`, the AC50 under setting [1] is 0.708 µM [rising, full curve].

For the compound `COc1ccc2sc(-c3ccccc3OC)c(-c3ccc(OC)c(F)c3)c2c1`, under setting [1], the AC50 is 23.1 µM [rising, single point].

Consider `O=C(NNc1c2ccccc2nc2ccccc12)c1ccc(O)cc1O`, for which, under setting [1], the AC50 is 25.1 µM [falling, single point].

Consider `CN(CCOc1ccc(-c2ccn(S(=O)(=O)c3cccc4ccccc34)n2)cc1)c1ccccn1`, for which the concentration at half-maximal activity (AC50) under setting [1] was 0.0291 µM [rising, full curve, poor fit].
